{"source": "patent US20180200257A1", "about": "“METHODS FOR THE TREATMENT OF INFLAMMATORY DISORDERS” (Galapagos NV, priority 2015, published 2018)", "system": "subjects with moderately to severely active RA who have an inadequate response to methotrexate (MTX)", "experiment": "Study 2 (monotherapy) - ACR responses (ACR20/50/70)", "type": "in vivo, human", "source_text": "The terms “ACR20”, “ACR50” and “ACR70” as used herein are scores which indicate how much a patient's rheumatoid arthritis has improved according to criteria set out by the American College of Rheumatology (ACR). The ACR score represents a percentage. An ACR20 score means that a person's RA has improved by 20%, an ACR50 score means it has improved by 50%, and an ACR70 score means it has improved by 70%. Specifically, to qualify for an ACR20 score, a person with RA must have at least 20% fewer tender joints and at least 20% fewer swollen joints. In addition the patient must show a 20% improvement in at least three of the following five areas: the person's overall (global) assessment of his or her own RA, the physician's global assessment of the person's RA, the person's assessment of his or her own pain, the person's assessment of his or her own physical functioning, and the results of an erythrocyte sedimentation rate or C-reactive protein (CRP) blood test (both of which test for inflammation). ACR50 and ACR70 scores use the same criteria but require 50% and 70% improvement, respectively, (Felson et al., 1993). In the data presented herein the CRP blood test is used.\nRandomized, double-blind, placebo-controlled, multicenter, phase IIb dose finding study of Compound 1 (dosed as a [Compound 1:HCl:3H2O]) administered for 24 weeks as monotherapy to subjects with moderately to severely active rheumatoid arthritis who have an inadequate response to methotrexate alone\nDouble-blind, placebo-controlled, monotherapy study in subjects with moderately to severely active RA who have an inadequate response to methotrexate (MTX) (oral or parenteral).\n280 subjects randomized to one of 3 doses of Compound 1 (dosed as a [Compound 1:HCl:3H2O]) or to placebo, given once daily (q.d.).\nTwelve weeks of treatment with Compound 1 (dosed as a [Compound 1:HCl:3H2O]) at 50 mg, 100 mg, or 200 mg q.d.; or placebo. At Week 12, all subjects on placebo and the subjects on the 50 mg dose who have not achieved 20% improvement in swollen joint count (SJC66) and tender joint count (TJC68) will be assigned to 100 mg q.d. in a blinded fashion and will continue treatment until Week 24. Subjects in the other groups will maintain their randomized treatment until Week 24.\nThe American College of Rheumatology (ACR) composite score, which evaluates clinical improvement relative to an initial assessment, is a commonly accepted efficacy end point for clinical trials in patients with rheumatoid arthritis. The ACR score correspond to a percentage improvement in pre-set parameters, and therefore measures the evolution of the disease in a patient. For example, ACR20 denotes at least 20% improvement in tender and swollen joint counts and in three of the following end points: global assessment by the patient, global assessment by the doctor, C reactive protein (CRP), patient's pain Visual Analogue Scale and Health Assessment Questionnaire Score. The number of swollen joints, ESR and CRP correlate with radiographic progression of joint damage, whereas tender joint counts, as well as global assessments by doctors and patients, and patients' reports of pain, are sensitive to change in clinical outcomes. Physical function, as assessed by the Health Assessment Questionnaire Score, is a potent predictor of the risk of disability in rheumatoid arthritis (Felson and American College of Rheumatology Committee to Reevaluate Improvement Criteria, 2007; Felson et al., 1993).\nIn particular, the list of parameters used to assess ACR score can be found in the Table XCVI below and the results of the ACR responses at week 12 via either NRI or LOCF are shown in the tables below. The Hommel-corrected p-value for the pairwise comparisons of each group with placebo is shown. […]", "key": {"[1]": {"conditions": "50 mg q.d., week 12, 12 weeks results"}, "[2]": {"conditions": "50 mg q.d., week 12, 24 weeks results"}, "[3]": {"conditions": "50 mg q.d., week 16, 24 weeks results"}, "[4]": {"conditions": "50 mg q.d., week 20, 24 weeks results"}, "[5]": {"conditions": "50 mg q.d., week 24, 24 weeks results"}, "[6]": {"conditions": "100 mg q.d., week 8, 24 weeks results"}, "[7]": {"conditions": "100 mg q.d., week 12, 12 weeks results"}, "[8]": {"conditions": "100 mg q.d., week 12, 24 weeks results"}, "[9]": {"conditions": "100 mg q.d., week 16, 24 weeks results"}, "[10]": {"conditions": "100 mg q.d., week 20, 24 weeks results"}, "[11]": {"conditions": "100 mg q.d., week 24, 24 weeks results"}, "[12]": {"conditions": "200 mg q.d., week 8, 24 weeks results"}, "[13]": {"conditions": "200 mg q.d., week 12, 12 weeks results"}, "[14]": {"conditions": "200 mg q.d., week 12, 24 weeks results"}, "[15]": {"conditions": "200 mg q.d., week 16, 24 weeks results"}, "[16]": {"conditions": "200 mg q.d., week 20, 24 weeks results"}, "[17]": {"conditions": "200 mg q.d., week 24, 24 weeks results"}}, "note": "Further values from the same series stand in other lists."}
{"compound": "O=C(Nc1nc2cccc(-c3ccc(CN4CCS(=O)(=O)CC4)cc3)n2n1)C1CC1", "note": "[Compound 1, cyclopropanecarboxylic acid {5-[4-(1,1-dioxo-thiomorpholin-4-ylmethyl)-phenyl]-[1,2,4]triazolo[1,5-a]pyridin-2-yl}-amide]", "values": [{"measurement": "ACR20 (LOCF)", "setting": "[1]", "value": 68.1, "unit": "%%"}, {"measurement": "ACR20 (NRI)", "setting": "[1]", "value": 66.7, "unit": "%%"}, {"measurement": "ACR50 (LOCF)", "setting": "[1]", "value": 36.1, "unit": "%%"}, {"measurement": "ACR70 (LOCF)", "setting": "[1]", "value": 8.3, "unit": "%%"}, {"measurement": "ACR20 (LOCF)", "setting": "[2]", "value": 66.7, "unit": "%"}, {"measurement": "ACR20 (NRI)", "setting": "[2]", "value": 66.7, "unit": "%"}, {"measurement": "ACR50 (LOCF)", "setting": "[2]", "value": 34.7, "unit": "%"}, {"measurement": "ACR70 (LOCF)", "setting": "[2]", "value": 8.3, "unit": "%"}, {"measurement": "ACR20 (LOCF)", "setting": "[3]", "value": 61.1, "unit": "%"}, {"measurement": "ACR20 (NRI)", "setting": "[3]", "value": 55.6, "unit": "%"}, {"measurement": "ACR50 (LOCF)", "setting": "[3]", "value": 36.1, "unit": "%"}, {"measurement": "ACR70 (LOCF)", "setting": "[3]", "value": 15.3, "unit": "%"}, {"measurement": "ACR20 (LOCF)", "setting": "[4]", "value": 58.3, "unit": "%"}, {"measurement": "ACR20 (NRI)", "setting": "[4]", "value": 51.4, "unit": "%"}, {"measurement": "ACR50 (LOCF)", "setting": "[4]", "value": 33.3, "unit": "%"}, {"measurement": "ACR70 (LOCF)", "setting": "[4]", "value": 13.9, "unit": "%"}, {"measurement": "ACR20 (LOCF)", "setting": "[5]", "value": 65.3, "unit": "%"}, {"measurement": "ACR20 (NRI)", "setting": "[5]", "value": 56.9, "unit": "%"}, {"measurement": "ACR50 (LOCF)", "setting": "[5]", "value": 36.1, "unit": "%"}, {"measurement": "ACR70 (LOCF)", "setting": "[5]", "value": 19.4, "unit": "%"}, {"measurement": "ACR20 (LOCF)", "setting": "[6]", "value": 61.4, "unit": "%"}, {"measurement": "ACR20 (NRI)", "setting": "[6]", "value": 61.4, "unit": "%"}, {"measurement": "ACR50 (LOCF)", "setting": "[6]", "value": 25.7, "unit": "%"}, {"measurement": "ACR70 (LOCF)", "setting": "[6]", "value": 11.4, "unit": "%"}, {"measurement": "ACR20 (LOCF)", "setting": "[7]", "value": 65.7, "unit": "%%"}, {"measurement": "ACR20 (NRI)", "setting": "[7]", "value": 65.7, "unit": "%%"}, {"measurement": "ACR50 (LOCF)", "setting": "[7]", "value": 32.9, "unit": "%%"}, {"measurement": "ACR70 (LOCF)", "setting": "[7]", "value": 18.6, "unit": "%%"}, {"measurement": "ACR20 (LOCF)", "setting": "[8]", "value": 67.1, "unit": "%"}, {"measurement": "ACR20 (NRI)", "setting": "[8]", "value": 67.1, "unit": "%"}, {"measurement": "ACR50 (LOCF)", "setting": "[8]", "value": 35.7, "unit": "%"}, {"measurement": "ACR70 (LOCF)", "setting": "[8]", "value": 18.6, "unit": "%"}, {"measurement": "ACR20 (LOCF)", "setting": "[9]", "value": 71.4}, {"measurement": "ACR20 (NRI)", "setting": "[9]", "value": 70.0}, {"measurement": "ACR50 (LOCF)", "setting": "[9]", "value": 40.0, "unit": "%"}, {"measurement": "ACR70 (LOCF)", "setting": "[9]", "value": 17.1, "unit": "%"}, {"measurement": "ACR20 (LOCF)", "setting": "[10]", "value": 72.9, "unit": "%"}, {"measurement": "ACR20 (NRI)", "setting": "[10]", "value": 70.0, "unit": "%"}, {"measurement": "ACR50 (LOCF)", "setting": "[10]", "value": 42.9, "unit": "%"}, {"measurement": "ACR70 (LOCF)", "setting": "[10]", "value": 25.7, "unit": "%"}, {"measurement": "ACR20 (LOCF)", "setting": "[11]", "value": 80.0, "unit": "%"}, {"measurement": "ACR20 (NRI)", "setting": "[11]", "value": 77.1, "unit": "%"}, {"measurement": "ACR50 (LOCF)", "setting": "[11]", "value": 41.4, "unit": "%"}, {"measurement": "ACR70 (LOCF)", "setting": "[11]", "value": 25.7, "unit": "%"}, {"measurement": "ACR20 (LOCF)", "setting": "[12]", "value": 73.9, "unit": "%"}, {"measurement": "ACR20 (NRI)", "setting": "[12]", "value": 73.9, "unit": "%"}, {"measurement": "ACR50 (LOCF)", "setting": "[12]", "value": 33.3, "unit": "%"}, {"measurement": "ACR70 (LOCF)", "setting": "[12]", "value": 17.4, "unit": "%"}, {"measurement": "ACR20 (LOCF)", "setting": "[13]", "value": 72.5, "unit": "%%"}, {"measurement": "ACR20 (NRI)", "setting": "[13]", "value": 72.5, "unit": "%%"}, {"measurement": "ACR50 (LOCF)", "setting": "[13]", "value": 42.0, "unit": "%%"}, {"measurement": "ACR70 (LOCF)", "setting": "[13]", "value": 13.0, "unit": "%%"}, {"measurement": "ACR20 (LOCF)", "setting": "[14]", "value": 72.5, "unit": "%"}, {"measurement": "ACR20 (NRI)", "setting": "[14]", "value": 72.5, "unit": "%"}, {"measurement": "ACR50 (LOCF)", "setting": "[14]", "value": 43.5, "unit": "%"}, {"measurement": "ACR70 (LOCF)", "setting": "[14]", "value": 13.0, "unit": "%"}, {"measurement": "ACR20 (LOCF)", "setting": "[15]", "value": 73.9}, {"measurement": "ACR20 (NRI)", "setting": "[15]", "value": 73.9}, {"measurement": "ACR50 (LOCF)", "setting": "[15]", "value": 40.6, "unit": "%"}, {"measurement": "ACR70 (LOCF)", "setting": "[15]", "value": 18.8, "unit": "%"}, {"measurement": "ACR20 (LOCF)", "setting": "[16]", "value": 75.4, "unit": "%"}, {"measurement": "ACR20 (NRI)", "setting": "[16]", "value": 75.4, "unit": "%"}, {"measurement": "ACR50 (LOCF)", "setting": "[16]", "value": 44.9, "unit": "%"}, {"measurement": "ACR70 (LOCF)", "setting": "[16]", "value": 24.6, "unit": "%"}, {"measurement": "ACR20 (LOCF)", "setting": "[17]", "value": 73.9, "unit": "%"}, {"measurement": "ACR20 (NRI)", "setting": "[17]", "value": 68.1, "unit": "%"}, {"measurement": "ACR50 (LOCF)", "setting": "[17]", "value": 49.3, "unit": "%"}, {"measurement": "ACR70 (LOCF)", "setting": "[17]", "value": 27.5, "unit": "%"}]}
